This is one part of the list. Small differences around the control level are noise.
Compound: Cc1nc(Nc2ncc(C(=O)Nc3c(C)cccc3Cl)s2)cc(N2CCN(CCO)CC2)n1 [dasatinib]
Experiment: log2 fold change of tryptic peptide abundance, ligand vs vehicle (limited proteolysis) (log2 ratio); higher = more trypsin-susceptible (destabilized)
Details: ligand concentration: 5 uM; sample: K562 cleared lysate

Chains of the proteins cited; added tags and fusions are not shown. Lines headed by an entry give the natural chain unless they say otherwise; changes in a name come on top.
UniProt Q5JTH9: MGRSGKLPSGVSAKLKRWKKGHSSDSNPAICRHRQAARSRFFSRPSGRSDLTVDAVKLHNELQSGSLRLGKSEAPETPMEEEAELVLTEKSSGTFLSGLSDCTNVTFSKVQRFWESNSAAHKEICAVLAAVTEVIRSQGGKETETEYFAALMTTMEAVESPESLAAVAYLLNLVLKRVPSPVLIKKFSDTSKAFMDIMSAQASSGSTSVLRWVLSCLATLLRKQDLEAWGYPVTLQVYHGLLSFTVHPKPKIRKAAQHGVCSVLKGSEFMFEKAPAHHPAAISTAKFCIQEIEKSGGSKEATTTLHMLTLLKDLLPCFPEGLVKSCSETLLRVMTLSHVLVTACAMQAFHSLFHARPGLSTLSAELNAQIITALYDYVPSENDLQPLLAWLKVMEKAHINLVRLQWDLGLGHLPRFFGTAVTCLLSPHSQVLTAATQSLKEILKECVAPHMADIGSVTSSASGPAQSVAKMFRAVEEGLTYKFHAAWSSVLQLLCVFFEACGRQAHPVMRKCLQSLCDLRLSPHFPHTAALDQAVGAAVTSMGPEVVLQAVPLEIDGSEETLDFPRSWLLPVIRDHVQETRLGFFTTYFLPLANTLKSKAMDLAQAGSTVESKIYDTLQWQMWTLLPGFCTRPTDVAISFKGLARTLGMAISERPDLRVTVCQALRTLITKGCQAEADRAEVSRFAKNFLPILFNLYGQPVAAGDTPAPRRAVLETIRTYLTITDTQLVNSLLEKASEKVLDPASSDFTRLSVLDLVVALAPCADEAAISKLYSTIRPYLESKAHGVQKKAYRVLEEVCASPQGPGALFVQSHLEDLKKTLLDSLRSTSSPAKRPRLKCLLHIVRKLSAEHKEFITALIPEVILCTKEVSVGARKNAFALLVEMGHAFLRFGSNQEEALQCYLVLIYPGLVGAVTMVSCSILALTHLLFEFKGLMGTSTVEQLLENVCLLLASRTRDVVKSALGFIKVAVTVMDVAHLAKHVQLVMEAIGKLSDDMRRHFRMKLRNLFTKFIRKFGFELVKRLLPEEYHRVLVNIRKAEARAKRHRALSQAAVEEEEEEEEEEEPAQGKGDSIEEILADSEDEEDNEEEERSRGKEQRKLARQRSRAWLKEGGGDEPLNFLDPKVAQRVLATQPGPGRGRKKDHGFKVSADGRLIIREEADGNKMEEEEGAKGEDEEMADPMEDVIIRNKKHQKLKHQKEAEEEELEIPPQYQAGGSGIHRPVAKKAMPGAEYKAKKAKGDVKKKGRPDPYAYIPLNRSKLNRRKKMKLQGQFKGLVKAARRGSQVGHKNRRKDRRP
UniProt Q5HYC2: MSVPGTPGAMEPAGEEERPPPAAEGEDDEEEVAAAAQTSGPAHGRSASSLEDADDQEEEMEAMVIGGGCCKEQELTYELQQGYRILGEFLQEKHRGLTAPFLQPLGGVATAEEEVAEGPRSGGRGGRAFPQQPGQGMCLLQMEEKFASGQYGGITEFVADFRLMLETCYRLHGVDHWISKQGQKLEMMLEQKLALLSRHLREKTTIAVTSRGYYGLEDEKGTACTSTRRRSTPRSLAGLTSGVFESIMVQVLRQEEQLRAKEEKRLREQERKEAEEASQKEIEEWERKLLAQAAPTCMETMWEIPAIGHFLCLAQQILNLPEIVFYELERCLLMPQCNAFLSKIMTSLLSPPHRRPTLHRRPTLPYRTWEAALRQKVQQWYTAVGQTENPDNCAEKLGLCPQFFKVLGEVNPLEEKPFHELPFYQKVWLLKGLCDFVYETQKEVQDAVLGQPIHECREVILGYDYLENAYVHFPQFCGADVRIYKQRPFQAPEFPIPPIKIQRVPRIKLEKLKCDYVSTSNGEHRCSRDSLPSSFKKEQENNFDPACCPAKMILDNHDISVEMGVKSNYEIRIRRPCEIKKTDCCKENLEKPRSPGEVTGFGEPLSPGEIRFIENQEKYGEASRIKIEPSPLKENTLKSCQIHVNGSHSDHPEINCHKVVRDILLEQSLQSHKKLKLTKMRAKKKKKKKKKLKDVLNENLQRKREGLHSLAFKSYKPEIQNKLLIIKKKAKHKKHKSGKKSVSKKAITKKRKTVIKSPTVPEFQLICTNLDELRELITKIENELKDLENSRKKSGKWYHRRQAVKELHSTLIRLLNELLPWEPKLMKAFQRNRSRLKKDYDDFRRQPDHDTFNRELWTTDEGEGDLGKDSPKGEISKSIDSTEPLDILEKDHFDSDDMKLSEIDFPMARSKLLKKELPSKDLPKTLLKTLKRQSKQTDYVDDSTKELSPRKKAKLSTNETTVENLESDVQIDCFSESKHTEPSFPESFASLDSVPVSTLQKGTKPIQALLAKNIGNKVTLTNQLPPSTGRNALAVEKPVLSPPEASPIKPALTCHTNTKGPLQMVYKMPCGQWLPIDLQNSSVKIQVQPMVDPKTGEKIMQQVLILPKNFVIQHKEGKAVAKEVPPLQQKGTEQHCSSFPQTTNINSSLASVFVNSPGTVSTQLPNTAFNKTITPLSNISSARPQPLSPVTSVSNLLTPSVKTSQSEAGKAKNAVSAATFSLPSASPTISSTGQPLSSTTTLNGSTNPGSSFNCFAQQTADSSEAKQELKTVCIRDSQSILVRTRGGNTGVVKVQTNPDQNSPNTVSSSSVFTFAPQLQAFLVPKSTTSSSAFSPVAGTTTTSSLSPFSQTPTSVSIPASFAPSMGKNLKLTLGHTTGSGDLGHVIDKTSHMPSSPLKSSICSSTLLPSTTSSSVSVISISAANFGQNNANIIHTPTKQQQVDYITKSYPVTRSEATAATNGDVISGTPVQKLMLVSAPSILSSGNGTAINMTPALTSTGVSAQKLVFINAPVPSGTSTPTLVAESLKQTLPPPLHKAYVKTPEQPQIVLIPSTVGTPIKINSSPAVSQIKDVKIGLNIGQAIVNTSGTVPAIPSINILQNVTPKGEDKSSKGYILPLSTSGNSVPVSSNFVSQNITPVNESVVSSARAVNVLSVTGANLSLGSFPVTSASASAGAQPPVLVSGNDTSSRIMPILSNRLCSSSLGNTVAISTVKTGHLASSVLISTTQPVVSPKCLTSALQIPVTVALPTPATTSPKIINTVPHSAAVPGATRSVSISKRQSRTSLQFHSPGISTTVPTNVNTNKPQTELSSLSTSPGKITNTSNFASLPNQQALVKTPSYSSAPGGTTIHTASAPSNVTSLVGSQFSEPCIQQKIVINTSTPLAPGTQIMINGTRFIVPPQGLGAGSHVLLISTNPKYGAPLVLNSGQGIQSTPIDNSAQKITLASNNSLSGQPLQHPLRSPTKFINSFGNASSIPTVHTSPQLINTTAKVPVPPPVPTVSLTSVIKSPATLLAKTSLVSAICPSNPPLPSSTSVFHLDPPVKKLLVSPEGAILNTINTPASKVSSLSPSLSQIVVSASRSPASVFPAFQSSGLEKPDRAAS
UniProt Q5RIA9: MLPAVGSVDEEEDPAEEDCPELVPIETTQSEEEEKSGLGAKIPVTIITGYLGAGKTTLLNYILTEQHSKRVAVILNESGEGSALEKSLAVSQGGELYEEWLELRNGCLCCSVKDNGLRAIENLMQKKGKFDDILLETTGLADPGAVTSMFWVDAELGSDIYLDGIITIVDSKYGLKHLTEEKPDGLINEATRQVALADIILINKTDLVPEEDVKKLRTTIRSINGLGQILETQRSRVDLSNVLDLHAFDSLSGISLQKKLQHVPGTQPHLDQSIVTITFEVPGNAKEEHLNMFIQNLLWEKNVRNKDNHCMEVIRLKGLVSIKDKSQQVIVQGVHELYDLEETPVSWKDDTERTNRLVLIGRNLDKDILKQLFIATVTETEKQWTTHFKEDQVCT
UniProt Q5T0N5: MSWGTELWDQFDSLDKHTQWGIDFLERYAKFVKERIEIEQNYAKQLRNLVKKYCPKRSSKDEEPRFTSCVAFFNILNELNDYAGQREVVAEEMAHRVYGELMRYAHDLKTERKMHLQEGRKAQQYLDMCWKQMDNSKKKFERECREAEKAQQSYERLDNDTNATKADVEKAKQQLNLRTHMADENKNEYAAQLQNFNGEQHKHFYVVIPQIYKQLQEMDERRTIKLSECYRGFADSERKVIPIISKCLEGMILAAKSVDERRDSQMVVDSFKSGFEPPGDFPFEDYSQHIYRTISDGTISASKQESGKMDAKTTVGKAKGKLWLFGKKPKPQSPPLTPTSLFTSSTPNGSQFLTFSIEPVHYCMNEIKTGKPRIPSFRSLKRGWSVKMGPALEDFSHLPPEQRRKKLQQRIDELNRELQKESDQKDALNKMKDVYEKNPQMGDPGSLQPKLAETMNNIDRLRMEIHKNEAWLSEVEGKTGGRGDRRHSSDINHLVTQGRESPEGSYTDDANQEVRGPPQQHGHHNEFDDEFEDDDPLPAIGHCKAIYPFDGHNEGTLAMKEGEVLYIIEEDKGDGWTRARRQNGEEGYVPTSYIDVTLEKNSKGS
UniProt Q3YEC7: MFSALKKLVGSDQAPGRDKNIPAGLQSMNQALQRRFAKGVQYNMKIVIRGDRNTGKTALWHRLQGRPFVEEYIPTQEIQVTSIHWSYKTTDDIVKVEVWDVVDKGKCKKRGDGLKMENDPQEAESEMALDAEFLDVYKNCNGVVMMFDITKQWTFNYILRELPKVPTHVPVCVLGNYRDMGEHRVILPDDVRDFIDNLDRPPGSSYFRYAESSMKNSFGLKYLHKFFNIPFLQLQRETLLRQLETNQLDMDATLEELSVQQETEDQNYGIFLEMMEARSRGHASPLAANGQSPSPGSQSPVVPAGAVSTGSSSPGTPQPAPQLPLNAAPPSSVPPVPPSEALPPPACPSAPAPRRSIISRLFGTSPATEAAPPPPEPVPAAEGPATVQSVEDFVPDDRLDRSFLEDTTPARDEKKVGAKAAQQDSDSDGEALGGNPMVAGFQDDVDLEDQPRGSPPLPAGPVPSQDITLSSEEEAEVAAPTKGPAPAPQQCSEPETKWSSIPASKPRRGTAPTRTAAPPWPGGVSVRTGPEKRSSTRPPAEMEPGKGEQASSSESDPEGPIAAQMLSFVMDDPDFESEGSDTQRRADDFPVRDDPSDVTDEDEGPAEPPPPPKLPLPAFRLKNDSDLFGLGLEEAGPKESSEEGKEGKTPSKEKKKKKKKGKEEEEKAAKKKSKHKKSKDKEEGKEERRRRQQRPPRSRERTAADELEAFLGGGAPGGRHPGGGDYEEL
UniProt Q5EBM0: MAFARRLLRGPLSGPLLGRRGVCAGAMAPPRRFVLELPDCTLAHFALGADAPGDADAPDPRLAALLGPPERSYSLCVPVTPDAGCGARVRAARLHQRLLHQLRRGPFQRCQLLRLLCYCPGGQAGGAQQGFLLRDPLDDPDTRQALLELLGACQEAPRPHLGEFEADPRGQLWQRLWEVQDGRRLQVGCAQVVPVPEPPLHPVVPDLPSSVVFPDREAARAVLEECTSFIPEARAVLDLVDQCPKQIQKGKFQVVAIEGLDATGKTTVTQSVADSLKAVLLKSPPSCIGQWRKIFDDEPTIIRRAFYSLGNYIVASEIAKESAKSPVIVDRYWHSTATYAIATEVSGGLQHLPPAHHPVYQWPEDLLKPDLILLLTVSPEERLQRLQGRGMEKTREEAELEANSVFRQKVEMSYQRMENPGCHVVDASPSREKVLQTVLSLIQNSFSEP
UniProt Q3MIT2: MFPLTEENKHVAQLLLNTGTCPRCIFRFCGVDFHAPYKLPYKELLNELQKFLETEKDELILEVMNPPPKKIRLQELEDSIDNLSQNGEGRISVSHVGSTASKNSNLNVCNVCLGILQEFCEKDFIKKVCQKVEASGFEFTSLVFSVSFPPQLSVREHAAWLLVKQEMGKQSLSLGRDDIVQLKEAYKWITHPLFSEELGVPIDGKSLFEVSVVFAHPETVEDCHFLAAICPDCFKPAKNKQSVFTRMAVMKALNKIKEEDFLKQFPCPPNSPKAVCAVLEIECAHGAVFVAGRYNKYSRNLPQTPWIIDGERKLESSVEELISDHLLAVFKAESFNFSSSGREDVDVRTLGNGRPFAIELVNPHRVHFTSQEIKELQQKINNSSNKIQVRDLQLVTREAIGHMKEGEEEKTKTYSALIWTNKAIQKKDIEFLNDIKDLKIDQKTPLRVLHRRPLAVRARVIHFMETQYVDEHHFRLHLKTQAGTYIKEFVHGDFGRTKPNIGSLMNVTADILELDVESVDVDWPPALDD
UniProt Q5T7V8: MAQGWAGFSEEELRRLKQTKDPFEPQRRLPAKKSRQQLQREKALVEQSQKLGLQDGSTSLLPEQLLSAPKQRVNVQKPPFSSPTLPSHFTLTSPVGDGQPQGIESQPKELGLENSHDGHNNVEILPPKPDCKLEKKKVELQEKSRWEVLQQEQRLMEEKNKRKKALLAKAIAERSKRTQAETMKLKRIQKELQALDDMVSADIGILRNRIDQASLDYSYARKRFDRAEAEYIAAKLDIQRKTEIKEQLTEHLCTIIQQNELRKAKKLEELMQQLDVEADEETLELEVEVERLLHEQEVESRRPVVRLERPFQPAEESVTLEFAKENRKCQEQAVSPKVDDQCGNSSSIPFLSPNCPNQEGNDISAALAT

Row | Target | log2 fold change
1 | RRP12 (peptide sequence: MKLQGQFK, peptide start residue: 1267) (UniProt Q5JTH9) | -0.276
2 | UniProt Q5HYC2 (peptide sequence: DILLEQSLQSHKK, peptide start residue: 662) | -0.585
3 | CBWD5 (peptide sequence: HLTEEKPDGLINEATR, peptide start residue: 177) (UniProt Q5RIA9) | -0.0578
4 | FNBP1L (peptide sequence: MEIHKNEAWLSEVEGK, peptide start residue: 463) (UniProt Q5T0N5) | 0.386
5 | UniProt Q3YEC7 (peptide sequence: VPTHVPVCVLGNYR, peptide start residue: 165) | -0.373
6 | CMPK2 (peptide sequence: KIFDDEPTIIRR, peptide start residue: 293) (UniProt Q5EBM0) | 0.24
7 | PUS10 (peptide sequence: DIEFLNDIK, peptide start residue: 428) (UniProt Q3MIT2) | 0.227
8 | UniProt Q5T7V8 (peptide sequence: ALVEQSQK, peptide start residue: 43) | -0.388
9 | UniProt Q5JQF8 (peptide sequence: KSGVGNVFIK, peptide start residue: 95) | 0.266

Two entries from above, as comma-separated lines:
Row,Target,log2 fold change
1,"RRP12 (peptide sequence: MKLQGQFK, peptide start residue: 1267) (UniProt Q5JTH9)",-0.276
2,"UniProt Q5HYC2 (peptide sequence: DILLEQSLQSHKK, peptide start residue: 662)",-0.585
